PubChem BioAssay AID1259254 – NCATS – 2017

Test: 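Genome-wide screen for genes that prevent DNA re-replication in cancer cells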 (primary screen)
System: human HCT116 colorectal cancer cells
Knock-down reagent: single siRNA against human genes
Timing: 3 days
Measurement: 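Nuclei stained with Hoechst and imaged; cell-cycle phase assigned by DNA content; G2 share scaled per plate, non-targeting siRNA 0%, GMNN siRNA 100%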
Reading the numbers: G2 robust z-score: higher = more G2 cells, more excess DNA replication
Active means: 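An siRNA counts as active if its G2 robust z-score lies at least 5 MADs above the screen median; here such calls match roughly 38% of GMNN control or more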
This is one part, drawn at random, of about 59,000 deposited reagents. About 1,550 of them (2.6%) were called active. 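G2 share is only a proxy for re-replication; each gene was hit by three separate siRNAs, and active genes were retested.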 Entries without a mark were called inactive. The numbers tell different reagents against one gene apart. Not all columns of the deposit are shown. Reagent sequences are not shown. The record does not give: the amount of reagent.

no.	target gene	siRNA no.	G2 robust z-score
1	TRIM24	1	0.2
2	TRIM24	2	-0.051
3	TRIM24	3	-0.903
4	GLA	1	0.0187
5	GLA	2	-0.504
6	GLA	3	-0.763
7	EXO1	1	2.58
8	EXO1	2	-0.637
9	EXO1	3	1.7
10	MAT2B	1	-0.191
11	MAT2B	2	0.348
12	MAT2B	3	4.81
13	CLHC1	1	5.63 (active)
14	CLHC1	2	3.61
15	CLHC1	3	-0.202
16	EXOC3L1	1	-0.349
17	EXOC3L1	2	-1.14
18	EXOC3L1	3	-0.713
19	RPS17P10	1	-0.789
20	RPS17P10	2	0.216
21	RPS17P10	3	-0.272
22	SNX10	1	7.17 (active)
23	SNX10	2	0.42
24	SNX10	3	-0.309

Next part, starting with the last 5 of the part before.
no.	target gene	siRNA no.	G2 robust z-score
20	RPS17P10	2	0.216
21	RPS17P10	3	-0.272
22	SNX10	1	7.17 (active)
23	SNX10	2	0.42
24	SNX10	3	-0.309
25	ZNF233	1	5.22 (active)
26	ZNF233	2	3.3
27	ZNF233	3	0.372
28	VAMP5	1	2.09
29	VAMP5	2	-0.496
30	VAMP5	3	-0.699
31	MYH9	1	-0.102
32	MYH9	2	-0.925
33	MYH9	3	-0.979
34	GRHL3	1	-0.37
35	GRHL3	2	0.376
36	GRHL3	3	-0.473
37	ACSS2	1	1.53
38	ACSS2	2	-0.0874
39	ACSS2	3	-0.773
40	CLEC5A	1	0.124
41	CLEC5A	2	1.64
42	CLEC5A	3	-0.817
43	UBE2L6	1	-1.16
44	UBE2L6	2	-0.261
45	UBE2L6	3	0.778
46	CDH5	1	0.0755
47	CDH5	2	0.435
48	CDH5	3	5.35 (active)
